{"source": "patent US20140045754A1", "about": "“GLP-1 COMPOSITIONS” (priority 2011, published 2014)", "key": {"[1]": {"assay": "optimisation of liraglutide:zinc molar ratios at various pH: free liraglutide in supernatant by UV-spectroscopy", "format": "physicochemical"}, "[2]": {"assay": "optimisation of liraglutide:protamine molar ratios: free liraglutide and protamine in supernatant by liquid chromatography", "conditions": "zinc:liraglutide 2,2:1, pH 7,8, 25° C."}}, "note": "For at least one compound, name, drawing or mass did not settle the structure.", "data": [{"smiles": "CCCCCCCCCCCCCCCC(=O)N[C@@H](CCC(=O)NCCCC[C@H](NC(=O)[C@H](C)NC(=O)[C@H](C)NC(=O)[C@H](CCC(N)=O)NC(=O)CNC(=O)[C@H](CCC(=O)O)NC(=O)[C@H](CC(C)C)NC(=O)[C@H](Cc1ccc(O)cc1)NC(=O)[C@H](CO)NC(=O)[C@H](CO)NC(=O)[C@@H](NC(=O)[C@H](CC(=O)O)NC(=O)[C@H](CO)NC(=O)[C@@H](NC(=O)[C@H](Cc1ccccc1)NC(=O)[C@@H](NC(=O)CNC(=O)[C@H](CCC(=O)O)NC(=O)[C@H](C)NC(=O)[C@@H](N)Cc1cnc[nH]1)[C@@H](C)O)[C@@H](C)O)C(C)C)C(=O)N[C@@H](CCC(=O)O)C(=O)N[C@@H](Cc1ccccc1)C(=O)N[C@H](C(=O)N[C@@H](C)C(=O)N[C@@H](Cc1c[nH]c2ccccc12)C(=O)N[C@@H](CC(C)C)C(=O)N[C@H](C(=O)N[C@@H](CCCNC(=N)N)C(=O)NCC(=O)N[C@@H](CCCNC(=N)N)C(=O)NCC(=O)O)C(C)C)[C@@H](C)CC)C(=O)O", "note": "[liraglutide, N^ε26-[(4S)-4-carboxy-4-(hexadecanoylamino)butanoyl]-[Arg^34]-GLP-1-(7-37)-peptide]", "values": [{"measurement": "minimum molar ratio of zinc to obtain 100% liraglutide precipitated", "setting": "[1]; pH 7,0 (data not reported)", "value": "1,3"}, {"measurement": "minimum zinc:liraglutide molar ratio to obtain no free liraglutide in the supernatant (100% precipitated)", "setting": "[1]; pH 7,8, zinc per 1 liraglutide", "value": "2,1"}, {"measurement": "minimum zinc:liraglutide molar ratio to obtain no free liraglutide in the supernatant", "setting": "[1]; pH 8,0, zinc per 1 liraglutide", "value": "2,1-2,2"}, {"measurement": "minimum zinc:liraglutide molar ratio to obtain no free liraglutide in the supernatant", "setting": "[1]; pH 8,2, zinc per 1 liraglutide", "value": "> 3"}, {"measurement": "maximal amount of protamine bound to the liraglutide and zinc of the composition", "setting": "[2]", "value": "0,1 mol Protamine per mol liraglutide"}]}]}
